Data: patent US7220732B2, “Compounds useful as photodynamic therapeutic agents” (priority 2002, dated 2007)
Some of these results come from one statement about several compounds together. At least one compound was matched to its structure with a doubt left.

Test: Spectroscopic absorbance properties
Type: physicochemical
Conditions: CHCl3, room temperature
Source text: The absorption bands of each photosensitiser are relatively insensitive to solvent changes with solutions in water/Cremophor resulting in a further bathochromic shift of ˜10 nm (Table 1). Excitation of chloroform solutions of the 2a and 4a at 635 nm gave a fluorescence band at 672 and 673 nm respectively (FIG. 2, Table 2). […] The reduction in fluorescence quantum yield in the series would imply more efficient population of the triplet excited state which would benefit singlet oxygen production. The ability of 2 and 4 to produce singlet oxygen would be a prerequisite to them being potential PDT agents.

Compound | λmax (absorbance)
F[B-]1(F)n2c(-c3ccccc3)cc(-c3ccccc3)c2N=C2C(c3ccccc3)=CC(c3ccccc3)=[N+]21 [Compound 2a] | 650–660 nm
F[B-]1(F)n2c(c(-c3ccccc3)c(Br)c2-c2ccccc2)N=C2C(c3ccccc3)=C(Br)C(c3ccccc3)=[N+]21 [Compound 4a] | 650–660 nm
